Source: doi:10.1101/2021.10.20.465166
The exact form of at least one protein or probe is not confirmed. At least one verdict rests on a figure or table, not on a statement of the authors.

Test system: C/EBPα BRM2
Assay: EMSA

Row | Sequence | binding result
1 | CCCCCACCCAGCCAGGCCAAC [PU.1 intron 4 RNA (PU.1i4)] | binds
2 | UUCCCACUCACCCAGCACCC [CTBP1 intron 2 RNA (CTBP1i2)] | binds
